# Test results: PubChem BioAssay AID588590 (National Center for Advancing Translational Sciences (NCATS), 2011)
# Protein sequences, listed by entry. Tags and fused reporters are not part of them. Lines headed by an entry give the natural chain unless they say otherwise; changes in a name come on top.
# UniProt Q9UNA4: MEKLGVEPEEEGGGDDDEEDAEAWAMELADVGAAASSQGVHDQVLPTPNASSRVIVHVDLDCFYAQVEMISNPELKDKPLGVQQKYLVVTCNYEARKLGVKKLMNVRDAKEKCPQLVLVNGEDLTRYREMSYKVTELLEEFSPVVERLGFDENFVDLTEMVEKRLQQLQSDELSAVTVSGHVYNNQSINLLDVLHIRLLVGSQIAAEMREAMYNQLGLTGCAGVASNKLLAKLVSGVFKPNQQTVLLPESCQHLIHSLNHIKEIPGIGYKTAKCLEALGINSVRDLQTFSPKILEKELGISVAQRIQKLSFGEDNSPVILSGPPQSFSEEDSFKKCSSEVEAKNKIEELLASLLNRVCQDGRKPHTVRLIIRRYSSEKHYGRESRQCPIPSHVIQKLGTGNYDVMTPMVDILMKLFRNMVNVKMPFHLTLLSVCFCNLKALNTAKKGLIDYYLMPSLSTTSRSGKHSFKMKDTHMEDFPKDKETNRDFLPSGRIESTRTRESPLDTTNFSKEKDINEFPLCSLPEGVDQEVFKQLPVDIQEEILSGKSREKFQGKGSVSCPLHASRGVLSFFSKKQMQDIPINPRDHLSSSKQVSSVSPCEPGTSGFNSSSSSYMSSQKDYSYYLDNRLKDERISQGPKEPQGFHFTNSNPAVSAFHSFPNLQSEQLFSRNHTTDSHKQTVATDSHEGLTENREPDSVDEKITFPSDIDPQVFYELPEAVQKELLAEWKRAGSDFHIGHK
# Several values for one entry are separate records, joined by “and”; a condition that tells them apart may be missing. Equal values may be shown once. The campaign covered roughly 390,000 compounds. About 4,000 (1%) were called active. The inconclusive results got no clear call from the source; some entries with a clear call stand among them for comparison. The call rests on the fitted dose curve; in most records, active means well fitted inhibition curve with a large enough effect; inconclusive means small, poorly fitted or top-dose-only effect, or another doubt; inactive means no such curve, though single readings can be large or run the other way. Potencies beside an inconclusive call are fits to weak or partial responses and may not hold up.
# Target: DNA polymerase iota (Homo sapiens) (UniProt Q9UNA4)
# Assay: qHTS for Inhibitors of Polymerase Iota
# Settings: Pol iota fluorescent replication assay, 10 min; series mostly up to 115 µM; activity, negative = inhibition: at the top concentration
# Text: DNA polymerases, such as Pol iota, are specifically involved in DNA repair. Pol iota specifically plays an important role in translesion synthesis, where the normal high-fidelity DNA polymerases cannot proceed and DNA synthesis stalls. […] Thus, while pol eta's (and most likely iota's) normal function is to protect humans against the deleterious consequences of DNA damage, under certain conditions they can have deleterious effects on human health. As a consequence, we propose to utilize a high throughput replication assay to identify small molecule inhibitors of pol iota.
# In a collaboration between the National Institute of Child Health & Human Development (NICHD) and NIH Chemical Genomics Center, a high-throughput, fluorescent screen was developed to screen the NIH Molecular Libraries Small Molecule Repository (MLSMR). This screen is used to identify inhibitors of pol iota.
# NIH Chemical Genomics Center [NCGC]
# NIH Molecular Libraries Probe Centers Network [MLPCN]
# Assay Submitter (PI): Roger Woodgate, NICHD)
# Three microliters of reagents (buffer in column 3 and 4 as negative control and 10 nM Pol iota in columns 1, 2, and 5-48) will be dispensed into 1,536-well black solid-bottomed plate. Compounds (23 nL) will be transferred via Kalypsys pin tool equipped with 1536-pin array. The plates will then be incubated for 15 min at room temperature, and 1 µL substrate (50 nM final concentration) will be added to start the reaction and kinetically read twice at 0 min and 10 min on the Viewlux reader.
# Potency means the concentration at half of the fitted maximal effect.
Compound,Potency,"activity, negative = inhibition"
O=C(Nc1ccc2c(c1)OCO2)NC1CCN(Cc2ccccc2)CC1,"inconclusive: 89.1 µM [inhibitor, single point]",
O=C1C(F)=CC(COC(c2ccccc2)(c2ccccc2)c2ccccc2)OC1n1cc(F)c(=O)[nH]c1=O (stereo unspecified),"inconclusive: 15.8 µM [inhibitor, partial curve, poor fit]",
Cc1nc2scc(C)n2c(=O)c1S(=O)(=O)Nc1cccc(C(F)(F)F)c1,,inactive: 30%
Cc1oc2c(C)c3oc(=O)c(CCC(=O)O)c(C)c3cc2c1-c1ccccc1,"inconclusive: 3.55 µM [inhibitor, full curve, poor fit]",
Cc1ccc(OCCC(=O)O)cc1,"inconclusive: 25.1 µM [inhibitor, single point]",
O=C(Nc1nncs1)c1cc2c(s1)CCC2,,inactive: -3.67%
COc1ccc(CNc2ncnc3c2cnn3-c2ccc(C)c(C)c2)cc1,,inactive: -0.0443%
C=CCc1ccc(OCCCOc2ccc(C)cc2OC)c(OC)c1,"inconclusive: 1.58 µM [inhibitor, full curve, poor fit]",
O=C1/C(=C/c2ccc(N3CCOCC3)o2)SC(=Nc2ccccc2)N1CCc1c[nH]c2ccccc12,"inconclusive: 39.8 µM [inhibitor, partial curve]",
CSc1ccccc1NC(=O)CN(C1CCCCC1)S(C)(=O)=O,,inactive: 12.3%
Cc1cc(C(C)(C)C)cc(C)c1COC(=O)CN1C(=O)NC2(CCCC2)C1=O,,inactive: -5.79%
COc1ccc(C(=O)Nc2nnc(C(F)(F)F)s2)cc1,"inconclusive: 39.8 µM [inhibitor, partial curve, poor fit]",
Cn1c(N)c(C(=O)COC(=O)CNC(=O)c2ccccc2)c(=O)n(C)c1=O,,inactive: 102%
O=c1c2ccccc2sn1-c1ccc(Cl)c(S(=O)(=O)N2CCOCC2)c1,active: 79.4 µM,
C#CCOCCOCCOCCNc1nc(N2CCN(C(=O)[C@H]([C@@H](C)CC)n3cc([C@@H](N)Cc4ccc(O)cc4)nn3)CC2)nc(N2CCN(C(=O)[C@H](Cc3cc4ccccc4[nH]3)n3cc([C@@H](N)CC(C)C)nn3)CC2)n1,"inconclusive: 12.6 µM [inhibitor, partial curve, poor fit]",
CCN(CC)C(=O)[C@H]1C[C@H](CC(=O)NCCc2ccccn2)C(=O)N2CCc3c([nH]c4cc(-c5ccco5)ccc34)[C@]12C,"inconclusive: 39.8 µM [inhibitor, partial curve, poor fit]",
O=C(N/N=C/c1ccc(OCc2ccccc2)cc1)c1ccco1,"inconclusive: 44.7 µM [inhibitor, partial curve]",
O=C(N/N=C/c1cccnc1)c1cc2c(ccc3ccccc32)o1,"inconclusive: 10 µM [inhibitor, partial curve, poor fit]",
CC(Cc1ccc(O)c(O)c1)C(C)Cc1ccc(O)c(O)c1 (stereo unspecified),active: 44.7 µM,
N=C1c2c(cc(=O)n3c2[nH]c2ccccc23)CN1CCN1CCOCC1,"inconclusive: 11.2 µM [inhibitor, full curve]",
O=C(COC(=O)C1CC1)Nc1ncc(Cl)cc1Cl,"inconclusive: 20 µM [inhibitor, full curve, poor fit]",

Compound,Potency,"activity, negative = inhibition"
COc1cccc(NC(=O)COC(=O)CCC(=O)c2cccs2)c1,"inconclusive: 6.31 µM [inhibitor, single point]",
Fc1ccc(-[n+]2nc(Nc3ccccc3)sc2-c2c3ccccc3cc3ccccc23)cc1,"inconclusive: 35.5 µM [inhibitor, single point]",
COc1cc(OC)c(/C=N/NC(=O)c2ccc(NC(C)=O)cc2)cc1Br,"inconclusive: 7.08 µM [inhibitor, partial curve, poor fit]",
Clc1cccc(N/N=C/c2ccc(N3CCOCC3)cc2)c1,,inactive: 24.9%
Cc1cccc(Oc2ccc3c(c2)Oc2ccccc2NC3=O)c1,active: 70.8 µM,
COc1ccc(C(C)NC(=O)Cc2cccs2)cc1OC (stereo unspecified),"inconclusive: 70.8 µM [inhibitor, partial curve, poor fit]",
O=C(O)c1cc(/C=C/C(=O)c2cc(F)ccc2O)c2c(c1)COCO2,active: 14.1 µM,
CCCc1cc(C(=O)Cc2nc3ccccc3s2)c(O)cc1O,"inconclusive: 39.8 µM [inhibitor, single point]",
O=C(NCc1ccccc1C(F)(F)F)c1cccc2c1C(=O)c1ccc(N3CCOCC3)cc1S2(=O)=O,"inconclusive: 11.2 µM [inhibitor, full curve, poor fit]",
COCc1ccc(C(=O)N2CCCC(C(=O)c3cccc(C(F)(F)F)c3)C2)o1 (stereo unspecified),"inconclusive: 15.8 µM [inhibitor, full curve, poor fit]",
CN(C)S(=O)(=O)c1cccc(NC(=S)N/N=C/c2ccc(O)c(O)c2O)c1,"inconclusive: 1.41 µM [inhibitor, full curve, poor fit]",
COc1ccc(NC(C)=O)cc1NC(=O)CSc1nc2ncccc2[nH]1,,inactive: 2.03%
CCN(C(=O)CSc1nc2n[nH]c(C)c2c(=N)n1-c1cccc(OC)c1)c1cccc(C)c1,,inactive: 23.7%
O=C(C1CCC(CNS(=O)(=O)c2cccc3nsnc23)CC1)N1CC=C(c2ccccc2)CC1 (stereo unspecified),"inconclusive: 89.1 µM [inhibitor, partial curve, poor fit]",
COc1ccc(OC)c(Nc2nc(NCCCN(C)C)nc(N)c2[N+](=O)[O-])c1,active: 31.6 µM,
CC(=O)OCC1=C(C(=O)O)N2C(=O)C(NC(=O)c3ccc(COc4cccc(Cl)c4Cl)o3)C2SC1 (stereo unspecified),active: 22.4 µM,
COc1cc(CC(=O)OCC(=O)Nc2cc([N+](=O)[O-])ccc2Cl)cc(OC)c1OC,,inactive: -5.2%
C#CCOCCOCCOCCNc1nc(N2CCN(C(=O)[C@H](CCCCN)n3cc(CN)nn3)CC2)nc(N2CCN(C(=O)[C@H](CCC(=O)O)n3cc([C@@H](N)[C@H](C)CC)nn3)CC2)n1,"inconclusive: 0.794 µM [inhibitor, full curve, poor fit]",
COc1ccc(OC)c(NC(=O)CSc2nc3[nH]c(=O)cc(O)c3s2)c1,"inconclusive: 25.1 µM [inhibitor, partial curve, poor fit]",
O=C(O)c1ccc(COc2ccccc2/C=C2\NC(=O)N(Cc3ccc(F)cc3)C2=O)cc1,"inconclusive: 17.8 µM [inhibitor, partial curve, poor fit]",
CCOC(=O)/C=C/C(=O)Nc1ccc(S(=O)(=O)Nc2cc(C)on2)cc1,"inconclusive: 28.2 µM [inhibitor, single point]",

Compound,Potency,"activity, negative = inhibition"
Cc1ccc(S(=O)(=O)N2CCC(C(=O)Nc3ccc4c(c3)COC4=O)CC2)cc1,"inconclusive: 79.4 µM [inhibitor, single point]",
COc1cc(C2Nc3ccccc3C(=O)N2Cc2ccco2)cc(OC)c1OC (stereo unspecified),"inconclusive: 100 µM [inhibitor, partial curve, poor fit]",
COc1ccc(NC(=O)CSc2nc(-c3ccco3)nc3cc(=O)[nH]n23)cc1Cl,active: 79.4 µM,
O=C(/C=C/c1ccc([N+](=O)[O-])cc1)c1cccnc1,"inconclusive: 28.2 µM [inhibitor, single point]",
Cc1sc2nc(CSCC(=O)N(C)CC(=O)Nc3ccc(F)cc3)[nH]c(=O)c2c1C,"inconclusive: 39.8 µM [inhibitor, single point]",
Cc1ccc(/C=C2\C(=O)Nc3ccccc32)o1,"inconclusive: 25.1 µM [inhibitor, partial curve, poor fit]",
O=C(/C=C/c1cccc([N+](=O)[O-])c1)c1cccs1,"inconclusive: 10 µM [inhibitor, full curve, poor fit]",
CCc1ccc(NS(=O)(=O)c2ccc3[nH]cc(C(=O)N(C)Cc4ccco4)c(=O)c3c2)cc1,"inconclusive: 39.8 µM [inhibitor, partial curve] and inconclusive: 100 µM [inhibitor, single point]",
CCCCC(c1nnnn1CCOC)N1CCN(C)CC1 (stereo unspecified),"inconclusive: 11.2 µM [inhibitor, partial curve, poor fit]",
CC(=O)Nc1ccc(S(=O)(=O)Nc2cc(S(=O)(=O)N3CCCCC3)ccc2O)cc1,"inconclusive: 15.8 µM [inhibitor, partial curve, poor fit]",
O=C(CSc1nnc(Cc2ccsc2)o1)c1ccccc1,"inconclusive: 89.1 µM [inhibitor, partial curve]",
COc1cc2c(cc1OC)-c1cc(Nc3ccccc3Br)nc(=O)n1CC2,"inconclusive: 22.4 µM [inhibitor, partial curve, poor fit]",
COC(=O)c1ccc(CSc2ccc3nnc(-c4ccccn4)n3n2)o1,,inactive: 19.3%
Cc1cc(NC(=O)CSc2nc(Cc3ccc(O)cc3)c(C)[nH]2)no1,"inconclusive: 28.2 µM [inhibitor, partial curve, poor fit]",
Cc1cccc2c1-c1sc(C(=O)N3CCc4ccccc4C3)cc1CO2,"inconclusive: 22.4 µM [inhibitor, partial curve, poor fit]",
O=C(CSc1nncs1)Nc1ccc2c(c1)OCO2,,inactive: -4.92%
CC1CC(C)(C)NC(=S)N1CC(=O)N1CCN(Cc2ccc3c(c2)OCO3)CC1 (stereo unspecified),"inconclusive: 89.1 µM [inhibitor, single point]",
CCOc1ccccc1NC(c1nnc(-c2ccccc2)o1)c1ccc(F)cc1Cl (stereo unspecified),"inconclusive: 100 µM [inhibitor, single point]",
Cc1cc(C)c2sc(NC(=O)c3ccc([N+](=O)[O-])o3)nc2c1,"inconclusive: 56.2 µM [inhibitor, single point]",

# Pulled one by one from the entries so far (4):
Compound,Potency,"activity, negative = inhibition"
Cc1cc(C)c2sc(NC(=O)c3ccc([N+](=O)[O-])o3)nc2c1,"inconclusive: 56.2 µM [inhibitor, single point]",
COc1cc2c(cc1OC)-c1cc(Nc3ccccc3Br)nc(=O)n1CC2,"inconclusive: 22.4 µM [inhibitor, partial curve, poor fit]",
CCOc1ccccc1NC(c1nnc(-c2ccccc2)o1)c1ccc(F)cc1Cl (stereo unspecified),"inconclusive: 100 µM [inhibitor, single point]",
CCCCC(c1nnnn1CCOC)N1CCN(C)CC1 (stereo unspecified),"inconclusive: 11.2 µM [inhibitor, partial curve, poor fit]",
